First the molecules themselves.
B1: ANb24-Alpaca1-4M-2SP-149 (Fc fusion)
chain: EVQLVESGGGLVQPGGSLRLSCTASGSTLDIYAIGWFRQAPGKEREGVSCITGSGSSTRYAHSVTGRFTISRDNAKNTVFLQMNSLKPEDTAVYYCAKARLLSRLCVPSPDFESWGQGTQVTVSS
notes: also called ANb24-A1-4M-2SP-149; ANb24-Alpacal-4M-2SP-149; not shown: Fc joined to the VHH by overlap PCR
B2: ANb24-Alpaca1-4M-2SP-180 (Fc fusion)
chain: B1 chain with E1Q, V2P, L4F, H62D, E89D, R104M
notes: also called ANb24-A1-4M-2SP-180; ANb24-Abpacal-4M-2SP-180; not shown: Fc joined to the VHH by overlap PCR
B3: ANb24-Alpaca1-4M-2SP-273 (Fc fusion)
chain: EVQLVESGGGLVQPGGSLRLSCAASGSTLDYYAIGWFRQAPGKEREGVSCISGSGGSTRYADSVTGRFTISKDSAKNTVYLEMNSLKPEDTAVYYCARARLLSRLCVPSADFDSWGQGTQVTVSS
notes: also called ANb24-A1-4M-2SP-273; ANb24-Alpacal-4M-2SP-273; not shown: Fc joined to the VHH by overlap PCR
B4: ANb24-Alpaca1-4M-2SP-317 (Fc fusion)
chain: QLQLVESGGDLVQPGGSLRLSCTASGHTLEYYAIGWFRQAPGKEREGVSCIIGSGGSTRYFDSVLGRFTISRDNAKNTVFLQMNSLKPEDTAVYYCAKVRLLSRLCVPSSDFDSWGQGTQVTVSS
notes: also called ANb24-A1-4M-2SP-317; ANb24-Alpacal-4M-2SP-317; not shown: Fc joined to the VHH by overlap PCR
B5: ANb24-Alpaca1-4M-2SP-335 (Fc fusion)
chain: QPQFVESGGGLVQPGGTLRLSCAASGFTFEYYTIGWFRQTPGKEREGVSCITAAGVPRNADSAKGRFTISRDNAKNMVYLQMNNLKPEDTAVYYCAQARLLSTSCAPMNDYWGQGTQVTVSS
notes: also called ANb24-A1-4M-2SP-335; ANb24-Alpacal-4M-2SP-335; not shown: Fc joined to the VHH by overlap PCR
B6: ANb24-Alpaca1-4M-2SP-226 (Fc fusion)
chain: QLQLVESGGGLVQPGGTLRLSCAASGVTLEYYSIGWFRQSPGKEREGVSCISGGGVQRYADSAEGRFAISRDNAKNMVYLQMNNLEPEDTAVYYCARARLLMRGCAPMDNYWGQGTQVTVSS
notes: also called ANb24-A1-4M-2SP-226; ANb24-Alpacal-4M-2SP-226; not shown: Fc joined to the VHH by overlap PCR
B7: ANb24-Alpaca1-4M-2SP-175 (Fc fusion)
chain: QPHFVESGGGLVQPGGSLRLSCVASGFTFEYVPIGWFRQAPGKEREGVSCITPTGITRNADSVKGRFTISRDNAKNTVYLQLNSLKPEDTAVYYCAKARLLSTSCVQTSDARGQGTQVTVSS
notes: also called ANb24-A1-4M-2SP-175; ANb24-Alpacal-4M-2SP-175; not shown: Fc joined to the VHH by overlap PCR
B8: ANb24-Alpaca1-4M-2SP-332 (Fc fusion)
chain: QVQLVESGGGLVQPGGSLRLSCAASGSTLASYAIGWFRQAPGKEREGISCISGSGGSTRAADSVQGRFTISRDNAKNTVSLQMNSLKPEDTAIYYCAKVRLLSRGCVPSPDFDSWGQGTQVTVSS
notes: also called ANb24-A1-4M-2SP-332; ANb24-Alpacal-4M-2SP-332; not shown: Fc joined to the VHH by overlap PCR

Chains of the proteins cited; added tags and fusions are not shown. Residues count along the entry.
UniProt P25942, residues 21-193: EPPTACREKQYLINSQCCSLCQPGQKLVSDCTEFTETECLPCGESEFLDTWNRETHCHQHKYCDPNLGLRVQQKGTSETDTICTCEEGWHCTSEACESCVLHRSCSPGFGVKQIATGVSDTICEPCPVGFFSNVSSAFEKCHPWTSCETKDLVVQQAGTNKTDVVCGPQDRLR

Positions count from the first letter of the chain named. No constants are given. Whether binding was seen depends on the method and setting. Some binding calls cover weakened binding; strength is not graded here.

One test addresses human CD40/His protein (human) (UniProt P25942). The experiment in a line: ELISA, 293F culture supernatant on CD40/His. (In general: In an ELISA, binding on a coated surface is turned into a signal by an enzyme label.)
B1: the binding result was “binds”.

Consider B2, for which the binding entry is “binds”.

Regarding B3, the binding result is reported as “binds”.

B4: the binding result is “binds”.

B5: the binding result is reported as “binds”.

Regarding B6, the binding result is “binds”.

Take B7: the binding result is “binds”.

As for B8, the binding result is “binds”.

The next test has the same target. The test is described as follows: ELISA, purified antibody on coated CD40/His (2 ug/mL), anti-human IgG-HRP.
As to B1, the binding entry was “binds”.

Take B2: the binding result is recorded as “binds”.

In the case of B3, the binding entry is “binds”.

Take B4: the binding entry is “binds”.

For B5, the binding entry is “binds”.

On to B6, for which the binding entry is “binds”.

As to B7, the binding entry is recorded as “binds”.

As for B8, the binding entry is on record as “binds”.

Source of the values: US20250188180A1 (BIOINTRON BIOLOGICAL, published 2025).
